PubChem BioAssay AID1224828 | NIAID – 2016
The whole screen tested about 17,000 reagents; shown is a random part of them. 762 of them (4.5%) count as active. 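Active calls include both raised and lowered p65 entry, mostly lowered; wells with fewer than 50 cells lack a z-score.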 The raw values are shown without normalisation. A number with no mark means an inactive call.

Assay: 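Knock-downs that increase or decrease LPS-induced p65 nuclear translocation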 (primary screen)
Cell system: mouse RAW264.7 G9 macrophage reporter cells (GFP-p65, Tnf promoter-mCherry)
Reagents: siRNA pool against mouse genes, 100 nM
Duration: 2 days siRNA transfection, then 40 min LPS before fixation
Conditions: LPS (Salmonella minnesota R595) at 10 ng/ml
Measurement: 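Imaged p65 nuclear translocation ratio, normalised to the plate median, converted to robust z-scores and averaged across two replicates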
Reading the numbers: p65 translocation robust z-score: higher = more nuclear NF-kappaB p65 after LPS than the plate median; nuclear/cytoplasmic p65 ratio: higher = more nuclear NF-kappaB p65
Rule for the call: 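Called active when z exceeds 3.3 or falls under -1.56 (median of Tlr4 controls), giving activity score of at least 50; no calls for control wells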
Calls: active = hit (p65 shift raised or lowered); inactive = no clear change

Adam25
- p65 translocation robust z-score: -1.02
- nuclear/cytoplasmic p65 ratio, rep 1: 1.38
- nuclear/cytoplasmic p65 ratio, rep 2: 1.6
- low cell count flag: enough cells to score

Fkbp9
- p65 translocation robust z-score: 2.91
- nuclear/cytoplasmic p65 ratio, rep 1: 1.74
- nuclear/cytoplasmic p65 ratio, rep 2: 2.12
- low cell count flag: enough cells to score

Nsd2
- p65 translocation robust z-score: -1.14
- nuclear/cytoplasmic p65 ratio, rep 1: 1.49
- nuclear/cytoplasmic p65 ratio, rep 2: 1.31
- low cell count flag: enough cells to score

Sbk1
- p65 translocation robust z-score: -1.02
- nuclear/cytoplasmic p65 ratio, rep 1: 1.31
- nuclear/cytoplasmic p65 ratio, rep 2: 1.08
- low cell count flag: enough cells to score

Fcgr3
- p65 translocation robust z-score: -0.61
- nuclear/cytoplasmic p65 ratio, rep 1: 1.32
- nuclear/cytoplasmic p65 ratio, rep 2: 1.34
- low cell count flag: enough cells to score

Sdk1
- p65 translocation robust z-score: -0.4
- nuclear/cytoplasmic p65 ratio, rep 1: 1.35
- nuclear/cytoplasmic p65 ratio, rep 2: 1.49
- low cell count flag: enough cells to score

Msantd5l
- p65 translocation robust z-score: 0.54
- nuclear/cytoplasmic p65 ratio, rep 1: 1.29
- nuclear/cytoplasmic p65 ratio, rep 2: 1.6
- low cell count flag: enough cells to score

Pax1
- p65 translocation robust z-score: -1.37
- nuclear/cytoplasmic p65 ratio, rep 1: 1.32
- nuclear/cytoplasmic p65 ratio, rep 2: 1.22
- low cell count flag: enough cells to score

Znrf4
- nuclear/cytoplasmic p65 ratio, rep 1: 1.15
- nuclear/cytoplasmic p65 ratio, rep 2: 1.17
- low cell count flag: fewer than 50 cells per well; well left out of scoring

Hpcal1
- p65 translocation robust z-score: -1.39
- nuclear/cytoplasmic p65 ratio, rep 1: 1.29
- nuclear/cytoplasmic p65 ratio, rep 2: 1.16
- low cell count flag: enough cells to score

Gtpbp6
- p65 translocation robust z-score: -0.88
- nuclear/cytoplasmic p65 ratio, rep 1: 1.28
- nuclear/cytoplasmic p65 ratio, rep 2: 1.18
- low cell count flag: enough cells to score

Wdr13
- p65 translocation robust z-score: 0.36
- nuclear/cytoplasmic p65 ratio, rep 1: 1.6
- nuclear/cytoplasmic p65 ratio, rep 2: 1.62
- low cell count flag: enough cells to score

Als2cl
- p65 translocation robust z-score: 0.53
- nuclear/cytoplasmic p65 ratio, rep 1: 1.42
- nuclear/cytoplasmic p65 ratio, rep 2: 1.93
- low cell count flag: enough cells to score

Tab1
- p65 translocation robust z-score: -0.18
- nuclear/cytoplasmic p65 ratio, rep 1: 1.42
- nuclear/cytoplasmic p65 ratio, rep 2: 1.32
- low cell count flag: enough cells to score

Laid out differently: entries from further up
Msantd5l: p65 translocation robust z-score = 0.54; nuclear/cytoplasmic p65 ratio, rep 1 = 1.29; nuclear/cytoplasmic p65 ratio, rep 2 = 1.6; low cell count flag = enough cells to score
Pax1: p65 translocation robust z-score = -1.37; nuclear/cytoplasmic p65 ratio, rep 1 = 1.32; nuclear/cytoplasmic p65 ratio, rep 2 = 1.22; low cell count flag = enough cells to score

Additional results follow:
Spata2
- p65 translocation robust z-score: -0.7
- nuclear/cytoplasmic p65 ratio, rep 1: 1.35
- nuclear/cytoplasmic p65 ratio, rep 2: 1.13
- low cell count flag: enough cells to score

Crmp1
- p65 translocation robust z-score: 0.37
- nuclear/cytoplasmic p65 ratio, rep 1: 1.57
- nuclear/cytoplasmic p65 ratio, rep 2: 1.9
- low cell count flag: enough cells to score

Ifi30
- p65 translocation robust z-score: 0.25
- nuclear/cytoplasmic p65 ratio, rep 1: 1.46
- nuclear/cytoplasmic p65 ratio, rep 2: 1.42
- low cell count flag: enough cells to score

Etfb
- p65 translocation robust z-score: -0.81
- nuclear/cytoplasmic p65 ratio, rep 1: 1.3
- nuclear/cytoplasmic p65 ratio, rep 2: 1.31
- low cell count flag: enough cells to score

Jph2
- p65 translocation robust z-score: 0.62
- nuclear/cytoplasmic p65 ratio, rep 1: 1.62
- nuclear/cytoplasmic p65 ratio, rep 2: 1.53
- low cell count flag: enough cells to score

Atxn2
- p65 translocation robust z-score: 0
- nuclear/cytoplasmic p65 ratio, rep 1: 1.51
- nuclear/cytoplasmic p65 ratio, rep 2: 1.52
- low cell count flag: enough cells to score

Ankle2
- p65 translocation robust z-score: -0.32
- nuclear/cytoplasmic p65 ratio, rep 1: 1.45
- nuclear/cytoplasmic p65 ratio, rep 2: 1.45
- low cell count flag: enough cells to score
